The supplement of paper PMC10849652
The list shows a part of the results.

Tests used:
Assay in all cases: log2 fold change, soluble protein after heating vs DMSO (PISA); higher = thermal stabilisation; K562 lysate, 10 uM; active = over 0.2 and 3.5 SD of the protein, either way, in both replicates (recomputed)
[1] = compound: C1=CC=C(C=C1)[C@H](COC2=CC3=C(C=C2)NC(=O)N3)NC(=O)C4=CC=CN(C4=O)CC5=CC(=C(C=C5)F)F
Method in brief: (§1)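 K562 pellets were dounce-homogenised in PBS pH 7.4 with 1 mM MgCl2, and the crude extract at 1 mg/mL protein was treated with 10 μM compound for 30 min. Aliquots were heated for 3 min across 48°C-58°C, pooled, and brought to 0.5% NP-40 at 4°C; soluble protein was the supernatant after 21,000xg for 90 min. Soluble protein was quantified by TMTpro 16plex LC-MS/MS with channel sums equalised, and reported as log2 fold change in thermal stability against DMSO controls, with values from duplicates.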

[2] = compound: CC1=C(SC2=C1C(=N[C@H](C3=NN=C(N32)C)CC(=O)N)C4=CC=C(C=C4)Cl)C
Method in brief: as §1

[3] = compound: CC1=C2C(=CC=C1)N=C(N(C2=O)C3=CC=CC=C3C)CN4C=NC5=C(N=CN=C54)N
Method in brief: as §1

[4] = compound: Cc1sc2c(c1C)C(c1ccc(Cl)cc1)=N[C@@H](CC(=O)OC(C)(C)C)c1nnc(C)n1-2
Method in brief: as §1

[5] = compound: c1ccc([C@@H]2C[C@H]2NC2CCNCC2)cc1
Method in brief: as §1

Measured: log2 fold change

PPIG (UniProt Q13427)
inactive: [1] -0.045 | [2] 0.073 | [3] 0.027 | [4] 0.039 | [5] 0.021

PPOX (UniProt P50336)
active: [1] 0.579
inactive: [2] 0.012 | [3] -0.009 | [4] -0.02 | [5] -0.023

PPP1CC isoform 2 (UniProt P36873)
inactive: [1] 0.034 | [2] 0.003 | [3] 0.029 | [4] 0.013 | [5] 0.003

PPIP5K1 (UniProt Q6PFW1)
inactive: [1] -0.016 | [2] 0.054 | [3] 0.021 | [4] 0.002 | [5] 0.035

PPP2R5B (UniProt Q15173)
inactive: [1] -0.08 | [2] -0.037 | [3] -0.024 | [4] -0.006 | [5] 0.066

PRMT8 (UniProt Q9NR22)
inactive: [1] -0.016 | [2] 0.031 | [3] 0.01 | [4] -0.041 | [5] -0.147

PPM1H (UniProt Q9ULR3)
inactive: [1] 0.011 | [2] -0.023 | [3] -0.008 | [4] 0.062 | [5] 0.05

PPP2R2A isoform 2 (UniProt P63151)
inactive: [1] 0.015 | [2] 0.016 | [3] 0.019 | [4] -0.068 | [5] -0.011

PPP2R5E (UniProt Q16537)
inactive: [1] -0.059 | [2] 0.006 | [3] 0.037 | [4] -0.006 | [5] -0.02

PRKCSH (UniProt P14314)
inactive: [1] 0 | [2] -0.002 | [3] -0.017 | [4] 0.041 | [5] 0.021

PPP1R12C isoform 3 (UniProt Q9BZL4)
inactive: [1] 0.126 | [2] 0.036 | [5] -0.237

PPME1 (UniProt Q9Y570)
inactive: [1] 0.057 | [2] -0.02 | [4] 0.06

PPP6C isoform 3 (UniProt O00743)
inactive: [1] 0.009 | [2] -0.007 | [3] 0.007 | [4] 0.024 | [5] -0.063

PPP1R3D (UniProt O95685)
inactive: [1] 0.116 | [2] -0.043 | [3] 0.078 | [5] 0.002

PPP1R13L (UniProt Q8WUF5)
inactive: [1] -0.396 | [2] -0.242 | [3] 0.037 | [5] -0.089

PRKCB isoform 2 (UniProt P05771)
inactive: [1] -0.007 | [2] -0.022 | [3] 0.086 | [4] 0.07 | [5] -0.005

PPL (UniProt O60437)
inactive: [1] -0.225 | [2] 0.169 | [4] -1.74

PRNP (UniProt P04156)
inactive: [1] 0.213 | [2] 0.063 | [4] -0.016 | [5] -0.162

PPP2R5C isoform 5 (UniProt Q13362)
inactive: [1] -0.068 | [2] 0.011 | [3] -0.02 | [4] -0.024 | [5] 0.071

PPP2R5A (UniProt Q15172)
inactive: [1] -0.028 | [2] 0.042 | [3] 0.026 | [4] 0.009 | [5] 0.196

PPP6R3 isoform 6 (UniProt Q5H9R7)
inactive: [5] -0.02

PREP (UniProt H0Y5Y0)
inactive: [5] 0.086

PRAME (UniProt P78395)
inactive: [1] -0.009 | [2] 0.014 | [3] 0.014 | [4] -0.008 | [5] 0.026

PPP1R16A (UniProt Q96I34)
inactive: [1] -0.141 | [2] 0.039 | [3] -0.128 | [5] 0.061

PPP1R3E (UniProt Q9H7J1)
inactive: [5] -0.058

PPP2CB (UniProt E5RHC1)
inactive: [1] -0.186 | [2] 0.23 | [4] 0.267 | [5] 0.346

2 successive entries already listed, quoted:
PPP2R2A isoform 2 (UniProt P63151)
inactive: [1] 0.015 | [2] 0.016 | [3] 0.019 | [4] -0.068 | [5] -0.011

PPP2R5E (UniProt Q16537)
inactive: [1] -0.059 | [2] 0.006 | [3] 0.037 | [4] -0.006 | [5] -0.02

Continuation.

PPWD1 (UniProt Q96BP3)
inactive: [1] 0.006 | [2] 0.007 | [3] 0.011 | [4] 0 | [5] 0.002

PRH1 (UniProt P02810)
inactive: [5] 0.034

PPP1R11 (UniProt O60927)
inactive: [1] -0.025 | [2] -0.095 | [4] 0.014 | [5] 0.001

PRKD3 (UniProt O94806)
inactive: [1] 0.035 | [2] 0 | [3] 0.206 | [5] -0.386

PROSER3 (UniProt Q2NL68)
inactive: [3] -0.051 | [5] -0.086

PPP6R3 isoform 2 (UniProt Q5H9R7)
inactive: [5] 0.061

PRDM15 (UniProt P57071)
inactive: [4] -0.196

PRADC1 (UniProt Q9BSG0)
inactive: [1] 0.267 | [2] 0.021 | [4] -0.029 | [5] 0.018

PRPF38A (UniProt Q8NAV1)
inactive: [1] 0.034 | [2] -0.055 | [3] -0.08 | [4] -0.024 | [5] -0.133

PPTC7 (UniProt Q8NI37)
inactive: [3] -0.019 | [4] 0.076

PPP2R3B (UniProt Q9Y5P8)
inactive: [1] -0.018 | [2] -0.299 | [5] 0.046

PROSER3, A0A2R8Y8D9
inactive: [4] 0.003

PPP1R15B (UniProt Q5SWA1)
inactive: [5] -0.072

PRG4 (UniProt Q92954)
inactive: [1] 0.03 | [2] -0.081 | [4] -0.059
active: [5] -1.18

PRG2 (UniProt P13727)
inactive: [4] -0.112

PPM1B isoform 2 (UniProt O75688)
inactive: [1] 0.125 | [2] 0.124 | [4] 0.012
